According to article doi:10.1101/2023.09.14.557376:
Results are given in words; binding and its absence hold for the method and conditions named. In cells and extracts the contact can be indirect. A yes stands for co-enrichment or nearness to the bait. Other partners may have been found. Tags and fused reporters may be left off the sequences shown.

T1: biotinylated IRF4 (IRF4-Avi-tag fusion protein, interferon regulatory factor 4) (mouse) (UniProt Q64287)
T1 sequence (chain, biotin on the Avi-tag (BirA-mediated in vivo biotinylation)): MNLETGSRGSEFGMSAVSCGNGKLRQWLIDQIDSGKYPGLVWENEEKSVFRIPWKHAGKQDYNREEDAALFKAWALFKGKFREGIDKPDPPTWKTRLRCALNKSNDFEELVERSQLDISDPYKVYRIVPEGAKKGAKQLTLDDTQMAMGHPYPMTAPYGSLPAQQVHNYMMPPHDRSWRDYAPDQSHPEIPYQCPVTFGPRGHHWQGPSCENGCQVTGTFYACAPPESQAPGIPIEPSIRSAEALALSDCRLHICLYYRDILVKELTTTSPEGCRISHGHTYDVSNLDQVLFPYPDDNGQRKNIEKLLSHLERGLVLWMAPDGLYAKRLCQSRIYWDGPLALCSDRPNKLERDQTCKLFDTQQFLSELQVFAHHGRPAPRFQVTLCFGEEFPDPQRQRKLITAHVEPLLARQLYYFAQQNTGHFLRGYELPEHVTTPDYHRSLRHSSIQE

B1: SATB1 (protein, UniProt Q60611 1-764)
chain: MDHLNEATQGKEHSEMSNNVSDPKGPPAKIARLEQNGSPLGRGRLGSTGGKMQGVPLKHSGHLMKTNLRKGTMLPVFCVVEHYENAIEYDCKEEHAEFVLVRKDMLFNQLIEMALLSLGYSHSSAAQAKGLIQVGKWNPVPLSYVTDAPDATVADMLQDVYHVVTLKIQLHSCPKLEDLPPEQWSHTTVRNALKDLLKDMNQSSLAKECPLSQSMISSIVNSTYYANVSAAKCQEFGRWYKHFKKTKDMMVEMDSLSELSQQGANHVNFGQQPVPGNTAEQPPSPAQLSHGSQPSVRTPLPNLHPGLVSTPISPQLVNQQLVMAQLLNQQYAVNRLLAQQSLNQQYLNHPPPVSRSMNKPLEQQVSTNTEVSSEIYQWVRDELKRAGISQAVFARVAFNRTQGLLSEILRKEEDPKTASQSLLVNLRAMQNFLQLPEAERDRIYQDERERSLNAASAMGPAPLLSTPPSRPPQVKTATLATERNGKPENNTMNINASIYDEIQQEMKRAKVSQALFAKVAATKSQGWLCELLRWKEDPSPENRTLWENLSMIRRFLSLPQPERDAIYEQESNAVHHHGDRPPHIIHVPAEQIQQQQQQQQQQQQQQQPPPPPPQPQPQPQAGPRLPPRQPTVASSAESDEENRQKTRPRTKISVEALGILQSFIQDVGLYPDEEAIQTLSAQLDLPKYTIIKFFQNQRYYLKHHGKLKDNSGLEVDVAEYKDEELLKDLEESVQDKNANTLFSVKLEEELSVEGSTDVNADLKD
B2: TBX21 (protein, UniProt Q9JKD8 1-530)
chain: MGIVEPGCGDMLTGTEPMPSDEGRGPGADQQHRFFYPEPGAQDPTDRRAGSSLGTPYSGGALVPAAPGRFLGSFAYPPRAQVAGFPGPGEFFPPPAGAEGYPPVDGYPAPDPRAGLYPGPREDYALPAGLEVSGKLRVALSNHLLWSKFNQHQTEMIITKQGRRMFPFLSFTVAGLEPTSHYRMFVDVVLVDQHHWRYQSGKWVQCGKAEGSMPGNRLYVHPDSPNTGAHWMRQEVSFGKLKLTNNKGASNNVTQMIVLQSLHKYQPRLHIVEVNDGEPEAACSASNTHVFTFQETQFIAVTAYQNAEITQLKIDNNPFAKGFRENFESMYASVDTSVPSPPGPNCQLLGGDPFSPLLSNQYPVPSRFYPDLPGQPKDMISQPYWLGTPREHSYEAEFRAVSMKPTLLPSAPGPTVPYYRGQDVLAPGAGWPVAPQYPPKMSPAGWFRPMRTLPMDPGLGSSEEQGSSPSLWPEVTSLQPEPSDSGLGEGDTKRRRISPYPSSGDSSSPAGAPSPFDKETEGQFYNYFPN
B3: hyaluronan-mediated motility receptor (HMMR) (protein, UniProt Q00547 1-794)
chain: MSFPKAPLKRFNDPSGCAPSPGAYDVKTSEATKGPVSFQKSQRFKNQRESQQNLNIDKDTTLLASAKKAKKSVSKKDSQKNDKDVKRLEKEIRALLQERGTQDKRIQDMESELEKTEAKLNAAVREKTSLSASNASLEKRLTELTRANELLKAKFSEDGHQKNMRALSLELMKLRNKRETKMRSMMVKQEGMELKLQATQKDLTESKGKIVQLEGKLVSIEKEKIDEKCETEKLLEYIQEISCASDQVEKCKVDIAQLEEDLKEKDREILSLKQSLEENITFSKQIEDLTVKCQLLETERDNLVSKDRERAETLSAEMQILTERLALERQEYEKLQQKELQSQSLLQQEKELSARLQQQLCSFQEEMTSEKNVFKEELKLALAELDAVQQKEEQSERLVKQLEEETKSTAEQLTRLDNLLREKEVELEKHIAAHAQAILIAQEKYNDTAQSLRDVTAQLESVQEKYNDTAQSLRDVTAQLESEQEKYNDTAQSLRDVTAQLESEQEKYNDTAQSLRDVTAQLESVQEKYNDTAQSLRDVTAQLESYKSSTLKEIEDLKLENLTLQEKVAMAEKSVEDVQQQILTAESTNQEYARMVQDLQNRSTLKEEEIKEITSSFLEKITDLKNQLRQQDEDFRKQLEEKGKRTAEKENVMTELTMEINKWRLLYEELYEKTKPFQQQLDAFEAEKQALLNEHGATQEQLNKIRDSYAQLLGHQNLKQKIKHVVKLKDENSQLKSEVSKLRSQLVKRKQNELRLQGELDKALGIRHFDPSKAFCHASKENFTPLKEGNPNCC
B4: ARID5A (protein, UniProt Q3U108 1-590)
chain: MAAPPAKGNTEQSEEGDLPQLPVSPKPDDEQSRSQSPTQLQDSPEAGGEQEEEQAFLVSLYKFMKERHTPIERVPHLGFKQINLWKIYKAVEKLGAYELVTGRRLWKNVYDELGGSPGSTSAATCTRRHYERLVLPYVRHLKGEDDKPLPPTKPRKQYKMAKELRGDDGTTEKLKKAKDSEERRVEQTTPGKTKSDATGQTQLPCQGSSRDSTEQLGPVSGPSPPLTGASSCPEAYKRLLSSFYCKGAHGIMSPLAKKKLLAQVSKAEALQCQEEGCRHGARSPNKDIQDSPQNLRGPAENSEHQLTPREGLQAPGGSTRMEAQVGPCPTAPMFSGCFHAYPTEVLKPVSQHPRDFFSGLKDRVLLGPPGKEEGPTTKESHLVWGGDANHPSAFHKGSTRKRSFYPKPKACWVSPMAKVPTERPGAPSPHPSSPGLGSKRGLEEEGFAHGGKKLRAVSPFLKEVDSKETGGKPAAPGLAVSCLLGPTPGPTPPEAYRGTMLRCPLNFTGSADPLKGQASLPFSPLVIPAFPAHLLATTGSSPMAASLMHFPPTPYDAVLRNRLGPASSAWHMPPVTTYAAPHFFHLNTKL
B5: BCL-3 (protein, UniProt Q9Z2F6 1-448)
chain: MPRCPAGAMDEGPVDLRTRPKGTPGAALPLRKRPLRPASPEPATTRSPAGPLDALRSGCDVPVVPGPPHCVARPEALYYQGPLMPIYSTPTMAPHFPLLNLPTHPYSMICPMEHPLSADIAMATRVDEDGDTPLHIAVVQNNIAAVYRILSLFKLGSREVDVHNNLRQTPLHLAVITTLPDMVRLLVTAGASPMALDRHGQTAIHLACEHRSPSCLQALLDSATSGSVDLEVRNYEGLTALHVAVNTGCQEAVLLLLERGADIDAVDIKSGRSPLIHAVENNSLNMVQLLLLHGANVNAQMYSGSSALHSASGRGLLPLVRTLVRSGADSGLKNCHNDTPLMVARSRRVIDILRGKASRAASGSQPEPSPDQSATNSPESSSRLSSNGLQSSPSSSPSLSPPKDAPGFPATPQNFFLPTTSTPAFLPFPGVLRGPGRPVPPSPAPGSS
B6: Fosl2 (protein, UniProt P47930 1-326)
chain: MYQDYPGNFDTSSRGSSGSPAHAESYSSGGGGQQKFRVDMPGSGSAFIPTINAITTSQDLQWMVQPTVITSMSNPYPRSHPYSPLPGLASVPGHMALPRPGVIKTIGTTVGRRRRDEQLSPEEEEKRRIRRERNKLAAAKCRNRRRELTEKLQAETEELEEEKSGLQKEIAELQKEKEKLEFMLVAHGPVCKISPEERRSPPTSGLQSLRGTGSAVGPVVVKQEPPEEDSPSSSAGMDKTQRSVIKPISIAGGGFYGEEPLHTPIVVTSTPAITPGTSNLVFTYPNVLEQESPSSPSESCSKAHRRSSSSGDQSSDSLNSPTLLAL
B7: ZN609 (protein, UniProt Q8BZ47 1-1413)
chain: MSLSSGACGGKGVDANPVETYDSGDEWDIGVGNLIIDLDADLEKDQQKLEMSGSKEVGIPAPNAVATLPDNIKFVTPVPGPQGKEGKSKSKRSKSGKDASKPTPGTSLFSPSEGAASKKEVQGRAGDGASAGGLVAAVAPKGSEKAAKASRSVAGSKKEKENSSSKGKKERSEGVGTCSEKDPGVLQPVPLGGRGSQYDGSAGMDTGTVEPLGSIAIEPGAALNPLGTKPEPEEGENECRPLKKVKSEKMESPVSTPAVLPLHLLVPVVNNDISSPCEQIMVRTRSVGVNTCDVALATEPECLGPCEPGTSVNLEGIVWQETEDGMLVVNVTWRNKTYVGTLLDCTRHDWAPPRFCDSPTSDLEMRNGRGRGKRMRPSSNTPVSEAAAASDSKGTSSSSKTRAGANSKGRRGSQNSSEHRPPASSTSEDVKASPSSANKRKSKPLSDMELNSSSEDSKGSKRVRTNSMGSATGPLPGTKVEPTLVDRNCPSPVLIDCPHPNCNKKYKHINGLKYHQAHAHTDDDSKPEADGDSEYGEEPALHADLSCNGAPVPQKGSLSPARSATPKVRLVEPHSPSPSSKFSTKGLCKKKLSGEGDTDPGALSNDGSDDGPSVMDETSNDAFDSLERKCMEKEKCKKPSSLKSEKIPSKSLKSARPIAPAIPPQQIYTFQTATFTAASPGSSSGLTTTVVQAMPNSPQLKPIQPKPTVMGEPFTVNPALTPAKDKKKKDKKKKDSSKELESPLTPGKVCRAEEGKSPFRDAAGDGIKVESLLNGSSESHQSRLASIKAEADKIYSFTDNAPSPSIGGSSRLDSTTPTQPLTPLHVVTQNGAEASSVKTNSPAYSDISDAGEDGEGKVDSAKSKDPEQLVKEGAKKTLFPPQPQSKDSPYYQGFESYYSPGYAQSSPGTLTSSSQAGMEGQPLKTKKDEEPESVEGKVKNDVCEEKKPELSNSSQQPSVIQQRPNMYMQSLYYNQYAYVPPYGYSDQSYHSHLLSTNTAYRQQYEEQQKRQSLEQQQQQQRGLDKKTEMGLKEREASLKEEWKQKPSIPPTLTKAPSLTDLVKSGPGKAKEPGTDPAKSVIIPKLDDSSKLPSQPPEGLKGKLGEASHLGKEASEAKTGTECGRQAEVDPILWYRQETESRMWTYVYPAKYSDIKSEDDRWKEERDRKLKEDRSRSKDSVPKEDGKESTSSDCKLPPSEESRLGSKEPRPSVHVPVSSPLTQHQSYIPYMHGYSYSQSYDPNHPSYRGMPAVMMQNYPGSYLPSSYSFSPYGSKVSGGEDADKARASPSVSCKASSESKALDILQQHASHYKSKSPTISDKNSQERDRGGCGVVGGGGSCGSVAGAGGTDRSADRPRTSPSQRLMSTHHHHHHLGYSLLPAQYNLPYAAGLSSTAIVASQQGSTPSLYPPPRR
B8: CDK7 (enzyme, UniProt Q03147 1-346)
chain: MAVDVKSRAKRYEKLDFLGEGQFATVYKARDKNTNQIVAIKKIKLGHRSEAKDGINRTALREIKLLQELSHPNIIGLLDAFGHKSNISLVFDFMETDLEVIIKDNSLVLTPSHIKAYMLMTLQGLEYLHQHWILHRDLKPNNLLLDENGVLKLADFGLAKSFGSPNRAYTHQVVTRWYRAPELLFGARMYGVGVDMWAVGCILAELLLRVPFLPGDSDLDQLTRIFETLGTPTEEQWPDMCSLPDYVTFKSFPGVPLQHIFIAAGDDLLELIQGLFLFNPCTRTTASQALKTKYFSNRPGPTPGCQLPRPNCPVEALKEPANPTVATKRKRAEALEQGILPKKLIF

molecular target: T1, biotinylated IRF4 (IRF4-Avi-tag fusion protein, interferon regulatory factor 4) (mouse); test: affinity purification with mass spectrometry

binding, binds:
B1
B2
B3
B4
B5
B6
B7
B8
